Earlier results in article PMC4482062 (Nucleic Acids Research, 2015).

Settings: cited from earlier work

## C[S+](CC[C@H](N)C(=O)[O-])C[C@H]1O[C@@H](n2cnc3c(N)ncnc32)[C@H](O)[C@@H]1O (some centres unmarked) [SAM, reference compound]
  cellular concentration in E. coli: 200 µM and 180 µM
  physiological concentration in E. coli: 0.2 mM

Values joined by “and” are separate entries in the source; they are usually repeats but may differ in a detail not shown here. Identical values can stand only once.
